The subject of this data set is HMLER-shEcad cells. Put plainly: Cellular uptake, copper content in whole cell by ICP-MS. It is filed as cell-based, human. Conditions: 5 µM for 24 h.

For the compound `O=C([O-])Cc1ccccc1Nc1c(Cl)cccc1Cl.[Cu+].c1ccc(P(c2ccccc2)c2ccccc2)cc1.c1ccc(P(c2ccccc2)c2ccccc2)cc1` [compound 1, [Cu^I(diclofenac)(PPh3)2]], the “Copper content in whole cell” value is 235 ± 5 ng of Cu/million cells.
Then `O=C([O-])c1ccccc1O.[Cu+].c1ccc(P(c2ccccc2)c2ccccc2)cc1.c1ccc(P(c2ccccc2)c2ccccc2)cc1` [compound 3, [Cu^I(salicylate)(PPh3)2]], with 302 ± 4 ng of Cu/million cells; and `COc1ccc2cc(C(C)C(=O)[O-])ccc2c1.[Cu+].c1ccc(P(c2ccccc2)c2ccccc2)cc1.c1ccc(P(c2ccccc2)c2ccccc2)cc1` [compound 2, [Cu^I(naproxen)(PPh3)2]], with 259 ± 5 ng of Cu/million cells.
